No constants are given. Whether binding was seen depends on the method and setting. Some results given as binding are weak or reduced against the parent protein; the word gives no strength. Where a sequence is shown, tags or fusion partners need not be part of it.
How the values were obtained:
[1] = target: biotinylated Wnt3a (UniProt P27467); assay: ELISA; as a1, dilution series of PTK7-Fc on biotinylated Wnt3a or Wnt5a in the presence of 500 nM FZD7-His as a competitor; Ptk7 detected by anti-hIgG1-Fc-HRP and FZD7 by anti-His-tag-HRP; both purified
[2] = target: T1, biotinylated Wnt5a (UniProt P22725); assay: as above
T1 sequence (chain, biotin): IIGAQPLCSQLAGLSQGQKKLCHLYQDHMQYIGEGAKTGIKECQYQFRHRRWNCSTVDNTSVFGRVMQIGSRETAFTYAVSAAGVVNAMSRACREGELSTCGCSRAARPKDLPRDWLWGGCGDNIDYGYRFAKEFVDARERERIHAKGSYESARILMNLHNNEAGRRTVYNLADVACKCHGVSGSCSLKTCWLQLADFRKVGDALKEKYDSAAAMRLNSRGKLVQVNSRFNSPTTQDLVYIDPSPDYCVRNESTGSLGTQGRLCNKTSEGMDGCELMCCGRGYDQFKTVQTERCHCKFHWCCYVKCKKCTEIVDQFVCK

By UniProt entry, the sequences of proteins in these tests, tags left out. Residues count along the entry.
UniProt P27467, residues 19-352: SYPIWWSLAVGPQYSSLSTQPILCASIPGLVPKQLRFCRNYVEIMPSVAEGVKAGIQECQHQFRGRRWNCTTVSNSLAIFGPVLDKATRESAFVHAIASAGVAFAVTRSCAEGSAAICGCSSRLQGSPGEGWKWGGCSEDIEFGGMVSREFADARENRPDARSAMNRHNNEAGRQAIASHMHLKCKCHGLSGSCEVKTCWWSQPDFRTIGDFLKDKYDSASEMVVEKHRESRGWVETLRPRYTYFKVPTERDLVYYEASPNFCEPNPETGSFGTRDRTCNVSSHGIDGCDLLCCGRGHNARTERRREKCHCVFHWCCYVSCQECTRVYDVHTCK

[3] = target: biotinylated Wnt3a (UniProt P27467); assay: ELISA; biotinylated Wnt3a or Wnt5a incubated 1 h at 4 °C with a dilution series of PTK7-Fc or FZD7-His in PBS + 0.5 % BSA + 15 ppm ProClin 300, then captured on Neutravidin plates; detected by anti-hIgG1-Fc-HRP or anti-His-tag-HRP; both purified
[4] = target: T1, biotinylated Wnt5a; assay: as above

Measured: binding

B1: PTK7-Fc (Ptk7 extracellular domain, sPtk7) (Fc fusion, UniProt Q13308 31-704)
chain: AIVFIKQPSSQDALQGRRALLRCEVEAPGPVHVYWLLDGAPVQDTERRFAQGSSLSFAAVDRLQDSGTFQCVARDDVTGEEARSANASFNIKWIEAGPVVLKHPASEAEIQPQTQVTLRCHIDGHPRPTYQWFRDGTPLSDGQSNHTVSSKERNLTLRPAGPEHSGLYSCCAHSAFGQACSSQNFTLSIADESFARVVLAPQDVVVARYEEAMFHCQFSAQPPPSLQWLFEDETPITNRSRPPHLRRATVFANGSLLLTQVRPRNAGIYRCIGQGQRGPPIILEATLHLAEIEDMPLFEPRVFTAGSEERVTCLPPKGLPEPSVWWEHAGVRLPTHGRVYQKGHELVLANIAESDAGVYTCHAANLAGQRRQDVNITVATVPSWLKKPQDSQLEEGKPGYLDCLTQATPKPTVVWYRNQMLISEDSRFEVFKNGTLRINSVEVYDGTWYRCMSSTPAGSIEAQARVQVLEKLKFTPPPQPQQCMEFDKEATVPCSATGREKPTIKWERADGSSLPEWVTDNAGTLHFARVTRDDAGNYTCIASNGPQGQIRAHVQLTVAVFITFKVEPERTTVYQGHTALLQCEAQGDPKPLIQWKGKDRILDPTKLGPRMHIFQNGSLVIHDVAPEDSGRYTCIAGNSCNIKHTEAPLYVVDKPVPEESEGPGSPPPYKMIQT
binds: all assays above

— PMC9834240, “Senescent cells perturb intestinal stem cell differentiation through Ptk7 induced noncanonical Wnt and YAP signaling” (Nature Communications, 2023)
